Source: patent US20010020002A1, “Androgen activity antagonists as therapies for anorexia, anorexia nervosa and disorders characterized by a pathologically underweight condition” (VELA PHARMACEUTICALS INC., priority 1997, published 2001)
At least one structure is not confirmed: it was looked up by name or label, or the drawing left a doubt.

Assays:
[1] = Example 1: flutamide therapy of a patient with anorexia nervosa; format: in vivo, human
[2] = Example 2: flutamide therapy of a patient at risk for developing AN; format: in vivo, human
[3] = Example 6: flutamide therapy of cachexia secondary to intravenous drug abuse; conditions: person, intravenous heroin use, 750 mg daily in three divided doses, next three months
[4] = Example 4: flutamide therapy of anorexia in a colon cancer patient receiving 5-FU and levamisole chemotherapy; format: in vivo, human; conditions: 250 mg daily
[5] = Example 5: flutamide therapy of cachexia in an AIDS patient; format: in vivo, human; conditions: 750 mg daily in three divided doses, next three months
[6] = Example 3: flutamide therapy of weight loss in a breast cancer patient receiving chemotherapy; format: in vivo, human
[7] = 250 mg daily, first three months of therapy

## CC(C)C(=O)Nc1ccc([N+](=O)[O-])c(C(F)(F)F)c1 [flutamide]
[1]; 500 mg daily (250 mg twice a day), first three months of therapy
  body weight: weight increases in the first three months of therapy within the normal range
[1]; 500 mg daily (250 mg twice a day), monthly assessment, first three months
  symptomatology (Yale-Brown-Cornell Eating Disorder Scale, YBC-EDS): symptoms improve
[1]; 500 mg daily, no menstruation for five months before therapy
  menstrual period: normal menstrual period reappears
[1]; person with AN, 250 mg daily, follow-up in one week
  body weight: gains weight
[2]; [7]
  body weight: continues to gain weight
[2]; 250 mg daily, monthly assessment, first three months
  symptomatology (YBC-EDS): symptoms improve
[2]; person at risk for AN, 250 mg daily plus oral birth control, one week
  body weight: gained weight
[3]
  body weight: continues to gain weight
[4]; first three months of therapy
  body weight: continues to gain weight
[4]; monthly follow-up, first three months
  symptoms: symptoms improve
[4]; person, colon cancer chemotherapy, one week
  body weight: gained some weight
[5]
  body weight: gains weight
[6]; [7]
  body weight: continues to gains weight
[6]; 250 mg daily, monthly follow-up, first three months
  symptoms: symptoms improve
[6]; person, breast cancer chemotherapy, 250 mg daily plus oral birth control, one week
  body weight: gained some weight
